Source: publication PMC10723529
No constants are given. Whether binding was seen depends on the method and setting. Some binding calls cover weakened binding; strength is not graded here.

Amino acid sequences for entries named in this document (tags omitted). Residues count along the entry.
UniProt P06748, residues 119-240: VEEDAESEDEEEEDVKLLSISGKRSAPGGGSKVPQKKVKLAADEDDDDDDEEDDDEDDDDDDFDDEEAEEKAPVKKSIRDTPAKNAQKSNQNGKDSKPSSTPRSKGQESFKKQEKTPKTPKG
UniProt Q8N726: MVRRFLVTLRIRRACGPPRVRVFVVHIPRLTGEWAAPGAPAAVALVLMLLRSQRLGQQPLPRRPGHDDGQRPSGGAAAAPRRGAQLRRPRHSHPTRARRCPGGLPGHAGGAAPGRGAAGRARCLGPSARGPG

Target: NPM1 IDR (amino acids 119–240) (UniProt P06748)
Assay: solution NMR of the phase-separated condensed phase; condensed phase from 50 uM [^13C,^15N]-p14^ARF and 50 uM NPM-IDR; 10 mM sodium phosphate pH 7.0, 150 mM NaCl, 2 mM TCEP, 1.67% DMSO-d6; pelleted by ultracentrifugation, light phase removed; both purified

## p14 Alternative Reading Frame tumor suppressor protein (p14^ARF), wild type (from UniProt Q8N726 1-132)
  binding: binds
